Values from PubChem BioAssay AID504808 (Drosophila RNAi Screening Center, 2011).
Assay: 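Genes whose loss lifts activity of an E2F-responsive reporter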 (primary screen). Cell system: Drosophila S2 cells. Reagents: long dsRNA against Drosophila genes. Read-out: 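Dual luciferase plate measurements; E2F-specific signal taken as firefly over Renilla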. Direction: E2F firefly: higher = more E2F reporter activity; Renilla normaliser: higher = more normaliser reporter signal. Hit rule: 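Called active if the normalised E2F reporter went up by over 50%; the cutoff is arbitrary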.
The screen tested about 21,000 reagents; shown is a random part of those that have a named target and a result. Over the whole deposit, 18 (0.084%) were called active. 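Raw counts without plate normalisation, one of two replicates; the ratio scores behind the calls were not deposited.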 The record does not give: the amount of reagent, the time to read-out.

What is on record for CG13606 [DRSC14609]?
E2F firefly, rep 1: 1.11e5; Renilla normaliser, rep 1: 6017; activity call: inactive

What is on record for ppk16 [DRSC02736]?
E2F firefly, rep 1: 1.35e5; Renilla normaliser, rep 1: 5195; activity call: inactive

How did the screen score jigr1 [DRSC13724]?
E2F firefly, rep 1: 80876; Renilla normaliser, rep 1: 2513; activity call: inactive

For jigr1 [DRSC15233], what was measured?
E2F firefly, rep 1: 1.07e5; Renilla normaliser, rep 1: 5629; activity call: inactive

For udd [DRSC06720], how do the results read?
E2F firefly, rep 1: 1.61e5; Renilla normaliser, rep 1: 5020; activity call: inactive

With CG8818 [DRSC07275], what was measured?
E2F firefly, rep 1: 2982; Renilla normaliser, rep 1: 129; activity call: inactive

Which result is listed for CG4891 [DRSC01936]?
E2F firefly, rep 1: 84247; Renilla normaliser, rep 1: 3476; activity call: inactive

How did the screen score TwdlX [DRSC19151]?
E2F firefly, rep 1: 83196; Renilla normaliser, rep 1: 2402; activity call: inactive

What did the screen give for obst-I [DRSC08339]?
E2F firefly, rep 1: 77945; Renilla normaliser, rep 1: 3775; activity call: inactive

With can [DRSC10664], what does the deposit list?
E2F firefly, rep 1: 48701; Renilla normaliser, rep 1: 2720; activity call: inactive

How did the screen score CG5561 [DRSC00688]?
E2F firefly, rep 1: 1.74e5; Renilla normaliser, rep 1: 6372; activity call: inactive

Just “E2F firefly, rep 1”, for 3 of the entries above:
TwdlX [DRSC19151] = 83196
obst-I [DRSC08339] = 77945
can [DRSC10664] = 48701

More entries:
How did the screen score CG5116 [DRSC15720]?
E2F firefly, rep 1: 52212; Renilla normaliser, rep 1: 3455; activity call: inactive

What is on record for CG3793 [DRSC01982]?
E2F firefly, rep 1: 84300; Renilla normaliser, rep 1: 4018; activity call: inactive

What is on record for Phyhd1 [DRSC14911]?
E2F firefly, rep 1: 1.25e5; Renilla normaliser, rep 1: 5851; activity call: inactive

What is on record for rswl [DRSC06923]?
E2F firefly, rep 1: 60042; Renilla normaliser, rep 1: 3257; activity call: inactive

With CG7058 [DRSC20021], what was measured?
E2F firefly, rep 1: 1.36e5; Renilla normaliser, rep 1: 5472; activity call: inactive

Which result is listed for msopa [DRSC11895]?
E2F firefly, rep 1: 74313; Renilla normaliser, rep 1: 7784; activity call: inactive

What did the screen give for Gle1 [DRSC06485]?
E2F firefly, rep 1: 2731; Renilla normaliser, rep 1: 229; activity call: inactive

How did the screen score Max [DRSC11218]?
E2F firefly, rep 1: 81206; Renilla normaliser, rep 1: 153; activity call: inactive
